One assay addresses BAK1-nYFP (Arabidopsis) (UniProt F4JIX9). As to the kind of experiment: split reporter; BiFC; nYFP and cYFP fusions coexpressed in leaves of N. benthamiana by Agrobacterium GV3101; YFP fluorescence observed after 72 h.
In another assay the target is BAK1-GFP (Arabidopsis). The experiment in a line: co-IP; total proteins of transgenic Arabidopsis seedlings, GFP-Trap-A agarose beads; immunoblot with anti-GFP and anti-Myc or anti-HA; for BRI1-GFP with BAK1-HA seedlings treated with 0-6% glucose or mannitol for 4 or 24 h; for BRI1 with AGB1 also 2% glucose. (In general: In western blotting, separated proteins are transferred to a membrane and probed.)

The target of assay [1] is GST-fused BAK1 kinase domain (Arabidopsis). The experiment in a line: pull-down; about 15 μg GST fusion with about 30 μg MBP fusion in 900 μL TGH buffer (10% glycerol, 1% Triton X-100, 1.5 mM MgCl2, 150 mM NaCl, 1 mM EGTA, 50 mM HEPES, pH 7.5); 30 μL GST beads, about 1 h; immunoblot with anti-MBP and anti-GST; both purified.
Assay [2] has the same target. As to the kind of experiment: condition: about 30 μg MBP fusion with about 15 μg GST fusion in 900 μL; pull-down; about 15 μg GST fusion with about 30 μg MBP fusion in 900 μL TGH buffer (10% glycerol, 1% Triton X-100, 1.5 mM MgCl2, 150 mM NaCl, 1 mM EGTA, 50 mM HEPES, pH 7.5); 30 μL GST beads, about 1 h; immunoblot with anti-MBP and anti-GST; both purified.

These are yes or no findings as the source states them, for the method shown. For some assays here: Binding can be weak; no strength is given. Sequences can lack the tags named with a protein. For some assays here: In cells and extracts the contact can be indirect.

B1: RGS1-cYFP (protein, UniProt Q8H1F2 1-459)
chain: MASGCALHGGCPSDYVAVAISVICFFVLLSRSVLPCLIHKAPRTNSSSFWIPVIQVISSFNLLFSIMMSVNLLRFRTKHWWRYCYLWAVWIEGPLGFGLLMSCRITQAFQLYFIFVKKRLPPVKSYIFLPLVLLPWIFGAAIIHATKPLNDKCHMGLQWTFPVAGLHALYVLALIAFTRAVRHVEFRFDELRDLWKGILVSATSIVIWVTAFVLNEIHEEISWLQVASRFVLLVTGGILVVVFFSISSNQPLLSQISLKKRQNFEFQRMGQALGIPDSGLLFRKEEFRPVDPNEPLDKLLLNKRFRHSFMEFADSCYAGETLHFFEEVYEHGKIPEDDSIRRIYMARHIMEKFIVAGAEMELNLSHKTRQEILTTQDLTHTDLFKNALNEVMQLIKMNLVRDYWSSIYFIKFKEEESCHEAMHKEGYSFSSPRLSSVQGSDDPFYQEHMSKSSRCSSPG
For the molecule B1, in the assay with BAK1-nYFP (Arabidopsis), the binding entry is on record as “binds”.

B2: Myc-RGS1 (protein, UniProt Q8H1F2 1-459)
chain: MASGCALHGGCPSDYVAVAISVICFFVLLSRSVLPCLIHKAPRTNSSSFWIPVIQVISSFNLLFSIMMSVNLLRFRTKHWWRYCYLWAVWIEGPLGFGLLMSCRITQAFQLYFIFVKKRLPPVKSYIFLPLVLLPWIFGAAIIHATKPLNDKCHMGLQWTFPVAGLHALYVLALIAFTRAVRHVEFRFDELRDLWKGILVSATSIVIWVTAFVLNEIHEEISWLQVASRFVLLVTGGILVVVFFSISSNQPLLSQISLKKRQNFEFQRMGQALGIPDSGLLFRKEEFRPVDPNEPLDKLLLNKRFRHSFMEFADSCYAGETLHFFEEVYEHGKIPEDDSIRRIYMARHIMEKFIVAGAEMELNLSHKTRQEILTTQDLTHTDLFKNALNEVMQLIKMNLVRDYWSSIYFIKFKEEESCHEAMHKEGYSFSSPRLSSVQGSDDPFYQEHMSKSSRCSSPG
On to B2, for which the binding result with BAK1-GFP (Arabidopsis) was “binds”.

B3: AGG1-cYFP (protein, UniProt Q9FDX9 1-98)
chain: MREETVVYEQEESVSHGGGKHRILAELARVEQEVAFLEKELKEVENTDIVSTVCEELLSVIEKGPDPLLPLTNGPLNLGWDRWFEGPNGGEGCRCLIL
In the case of B3, the binding result with BAK1-nYFP (Arabidopsis) is listed as “binds”.

B4: MBP-AGG1 (natural protein, Arabidopsis, UniProt Q9FDX9 1-98, looked up)
chain: MREETVVYEQEESVSHGGGKHRILAELARVEQEVAFLEKELKEVENTDIVSTVCEELLSVIEKGPDPLLPLTNGPLNLGWDRWFEGPNGGEGCRCLIL
notes: AGG1, Arabidopsis G protein gamma subunit 1; also called G protein gamma subunit; source: E. coli (pMAL-c2); not shown: MBP, N-terminal, kept
As to B4, the binding entry in assay [1] was “binds”.

B5: AGG3-cYFP (protein, UniProt Q6AWT8 1-251)
chain: MSAPSGGGEGGGKESAAGGVSSSSLAPSSLPPPRPKSPPEYPDLYGKRREAARVQMLEREIGFLEGEIKFIEGVQPASRCIKEVSDFVVANSDPLIPAQRKSRRSFRFWKWLCGPCLSLVSFCCCCQSKCSCHLRKPKCCNCTSCSCIGSKCCDGSCCSNICCCPRLSCPSCSCFRGCWCSCPDMSCCIPSCFRSCSCTRPSCLNKKKSSCCSCNCKIRWSSCFSCPKVRLCSCCFCNCKNLCSNPCCLAF
Turning to B5, the binding result in the assay with BAK1-nYFP (Arabidopsis) is listed as “binds”.

B6: AGG2-cYFP (protein, UniProt Q93V47 1-100)
chain: MEAGSSNSSGQLSGRVVDTRGKHRIQAELKRLEQEARFLEEELEQLEKMDNASASCKEFLDSVDSKPDPLLPETTGPVNATWDQWFEGPKEAKRCGCSIL
As for B6, the binding result with BAK1-nYFP (Arabidopsis) is recorded as “binds”.

B7: MBP-AGG2 (natural protein, Arabidopsis, UniProt Q93V47 1-100, looked up)
chain: MEAGSSNSSGQLSGRVVDTRGKHRIQAELKRLEQEARFLEEELEQLEKMDNASASCKEFLDSVDSKPDPLLPETTGPVNATWDQWFEGPKEAKRCGCSIL
notes: AGG2, Arabidopsis G protein gamma subunit 2; also called G protein gamma subunit; source: E. coli (pMAL-c2); not shown: MBP, N-terminal, kept
As to B7, the binding result in assay [1] is given as “binds”.

B8: MBP-GPA1 (protein, UniProt P18064 1-383)
chain: MGLLCSRSRHHTEDTDENTQAAEIERRIEQEAKAEKHIRKLLLLGAGESGKSTIFKQIKLLFQTGFDEGELKSYVPVIHANVYQTIKLLHDGTKEFAQNETDSAKYMLSSESIAIGEKLSEIGGRLDYPRLTKDIAEGIETLWKDPAIQETCARGNELQVPDCTKYLMENLKRLSDINYIPTKEDVLYARVRTTGVVEIQFSPVGENKKSGEVYRLFDVGGQRNERRKWIHLFEGVTAVIFCAAISEYDQTLFEDEQKNRMMETKELFDWVLKQPCFEKTSFMLFLNKFDIFEKKVLDVPLNVCEWFRDYQPVSSGKQEIEHAYEFVKKKFEELYYQNTAPDRVDRVFKIYRTTALDQKLVKKTFKLVDETLRRRNLLEAGLL
In the case of B8, in assay [2], the binding entry was “no binding”.

B9: GPA1-cYFP (protein, UniProt P18064 1-383)
chain: MGLLCSRSRHHTEDTDENTQAAEIERRIEQEAKAEKHIRKLLLLGAGESGKSTIFKQIKLLFQTGFDEGELKSYVPVIHANVYQTIKLLHDGTKEFAQNETDSAKYMLSSESIAIGEKLSEIGGRLDYPRLTKDIAEGIETLWKDPAIQETCARGNELQVPDCTKYLMENLKRLSDINYIPTKEDVLYARVRTTGVVEIQFSPVGENKKSGEVYRLFDVGGQRNERRKWIHLFEGVTAVIFCAAISEYDQTLFEDEQKNRMMETKELFDWVLKQPCFEKTSFMLFLNKFDIFEKKVLDVPLNVCEWFRDYQPVSSGKQEIEHAYEFVKKKFEELYYQNTAPDRVDRVFKIYRTTALDQKLVKKTFKLVDETLRRRNLLEAGLL
Regarding B9, the binding entry with BAK1-nYFP (Arabidopsis) is “no binding”.

B10: MBP-AGB1 (natural protein, Arabidopsis, UniProt P49177 1-377, looked up)
chain: MSVSELKERHAVATETVNNLRDQLRQRRLQLLDTDVARYSAAQGRTRVSFGATDLVCCRTLQGHTGKVYSLDWTPERNRIVSASQDGRLIVWNALTSQKTHAIKLPCAWVMTCAFSPNGQSVACGGLDSVCSIFSLSSTADKDGTVPVSRMLTGHRGYVSCCQYVPNEDAHLITSSGDQTCILWDVTTGLKTSVFGGEFQSGHTADVLSVSISGSNPNWFISGSCDSTARLWDTRAASRAVRTFHGHEGDVNTVKFFPDGYRFGTGSDDGTCRLYDIRTGHQLQVYQPHGDGENGPVTSIAFSVSGRLLFAGYASNNTCYVWDTLLGEVVLDLGLQQDSHRNRISCLGLSADGSALCTGSWDSNLKIWAFGGHRRVI
notes: AGB1, Arabidopsis G protein beta subunit; Cloned into the EcoR I and Pst I sites of pMAL-c2; also called G protein beta subunit; source: E. coli (pMAL-c2); not shown: MBP, N-terminal, kept
With B10, the binding result in assay [2] is given as “no binding”.

B11: AGB1-cYFP (protein, UniProt P49177 1-377)
chain: MSVSELKERHAVATETVNNLRDQLRQRRLQLLDTDVARYSAAQGRTRVSFGATDLVCCRTLQGHTGKVYSLDWTPERNRIVSASQDGRLIVWNALTSQKTHAIKLPCAWVMTCAFSPNGQSVACGGLDSVCSIFSLSSTADKDGTVPVSRMLTGHRGYVSCCQYVPNEDAHLITSSGDQTCILWDVTTGLKTSVFGGEFQSGHTADVLSVSISGSNPNWFISGSCDSTARLWDTRAASRAVRTFHGHEGDVNTVKFFPDGYRFGTGSDDGTCRLYDIRTGHQLQVYQPHGDGENGPVTSIAFSVSGRLLFAGYASNNTCYVWDTLLGEVVLDLGLQQDSHRNRISCLGLSADGSALCTGSWDSNLKIWAFGGHRRVI
Turning to B11, the binding result in the assay with BAK1-nYFP (Arabidopsis) is given as “no binding”.

(Values after PMC5906681, “BRI1 and BAK1 interact with G proteins and regulate sugar-responsive growth and development in Arabidopsis” (Nature Communications, 2018).)
